{"source": "PubChem BioAssay AID1259425 (University of Nebraska Medical Center, 2018)", "test": "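Compare each knockdown with KSR1 silencing using changes in marker transcripts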 (primary screen)", "system": "HCT116 human colon cancer cells", "knock-down reagent": "siRNA pool against human genes, 50 nM siRNA", "measured": "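mRNA of six signature genes measured together by branched-DNA assay after 50 nM siRNA pool, blank removed, divided by geometric mean of two housekeeping genes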", "reading the numbers": "BNIP3L mRNA: higher = more BNIP3L transcript after knockdown", "note": "The deposit covers about 14,000 reagents; below is a part drawn at random. Not all columns of the deposit are shown. Not given: the time to read-out."}
{"Target gene": "NIT2", "PubChem SID": "SID364001555", "BNIP3L mRNA, set 1": 0.0744}
{"Target gene": "TMEM237", "PubChem SID": "SID364004715", "BNIP3L mRNA, set 1": 0.0235}
{"Target gene": "GMCL1", "PubChem SID": "SID364004913", "BNIP3L mRNA, set 1": 0.179}
{"Target gene": "ANPEP", "PubChem SID": "SID363992442", "BNIP3L mRNA, set 1": 0.111}
{"Target gene": "CD1D", "PubChem SID": "SID363992985", "BNIP3L mRNA, set 1": 0.131}
{"Target gene": "KLHL3", "PubChem SID": "SID364000296", "BNIP3L mRNA, set 1": 0.193}
{"Target gene": "VWA1", "PubChem SID": "SID364002577", "BNIP3L mRNA, set 1": 0.252}
{"Target gene": "ZDHHC7", "PubChem SID": "SID364000487", "BNIP3L mRNA, set 1": 0.13}
{"Target gene": "ANKRD53", "PubChem SID": "SID364003170", "BNIP3L mRNA, set 1": 0.0779}
{"Target gene": "BLNK", "PubChem SID": "SID363998428", "BNIP3L mRNA, set 1": 0.201}
{"Target gene": "CDIN1", "PubChem SID": "SID364004015", "BNIP3L mRNA, set 1": 0.0993}
{"Target gene": "SNCAIP", "PubChem SID": "SID363996365", "BNIP3L mRNA, set 1": 0.0952}
{"Target gene": "TWSG1", "PubChem SID": "SID364001751", "BNIP3L mRNA, set 1": 0.189}
{"Target gene": "SIRPG", "PubChem SID": "SID364001127", "BNIP3L mRNA, set 1": 0.0768}
{"Target gene": "BACH1", "PubChem SID": "SID363992476", "BNIP3L mRNA, set 1": 0.151}

Sorted by “BNIP3L mRNA, set 1” (highest first): some entries from above
{"Target gene": "BLNK", "PubChem SID": "SID363998428", "BNIP3L mRNA, set 1": 0.201}
{"Target gene": "ZDHHC7", "PubChem SID": "SID364000487", "BNIP3L mRNA, set 1": 0.13}
{"Target gene": "CDIN1", "PubChem SID": "SID364004015", "BNIP3L mRNA, set 1": 0.0993}
{"Target gene": "SNCAIP", "PubChem SID": "SID363996365", "BNIP3L mRNA, set 1": 0.0952}
{"Target gene": "ANKRD53", "PubChem SID": "SID364003170", "BNIP3L mRNA, set 1": 0.0779}

More entries:
{"Target gene": "NEU2", "PubChem SID": "SID363996293", "BNIP3L mRNA, set 1": 0.08}
{"Target gene": "MARCHF2", "PubChem SID": "SID364000149", "BNIP3L mRNA, set 1": 0.11}
{"Target gene": "KIF20B", "PubChem SID": "SID363999940", "BNIP3L mRNA, set 1": 0.0783}
{"Target gene": "ITPR3", "PubChem SID": "SID363993424", "BNIP3L mRNA, set 1": 0.13}
{"Target gene": "CAMK2A", "PubChem SID": "SID363999769", "BNIP3L mRNA, set 1": 0.106}
{"Target gene": "DHDH", "PubChem SID": "SID363998887", "BNIP3L mRNA, set 1": 0.0678}
{"Target gene": "PIWIL2", "PubChem SID": "SID364000755", "BNIP3L mRNA, set 1": 0.0947}
{"Target gene": "CXCL1", "PubChem SID": "SID363992769", "BNIP3L mRNA, set 1": 0.121}
{"Target gene": "FAU", "PubChem SID": "SID363993209", "BNIP3L mRNA, set 1": 0.0703}
{"Target gene": "NNT", "PubChem SID": "SID363998253", "BNIP3L mRNA, set 1": 0.0497}
{"Target gene": "CADM3", "PubChem SID": "SID364002076", "BNIP3L mRNA, set 1": 0.0727}
{"Target gene": "BAALC", "PubChem SID": "SID364003079", "BNIP3L mRNA, set 1": 0.137}
{"Target gene": "CHRNB3", "PubChem SID": "SID363992044", "BNIP3L mRNA, set 1": 0.0517}
{"Target gene": "PTPN2", "PubChem SID": "SID363993984", "BNIP3L mRNA, set 1": 0.0795}
{"Target gene": "TCF15", "PubChem SID": "SID363995578", "BNIP3L mRNA, set 1": 0.148}
{"Target gene": "GRHL3", "PubChem SID": "SID364002067", "BNIP3L mRNA, set 1": 0.134}
{"Target gene": "CDADC1", "PubChem SID": "SID364003486", "BNIP3L mRNA, set 1": 0.156}
{"Target gene": "CES1", "PubChem SID": "SID363992551", "BNIP3L mRNA, set 1": 0.143}
{"Target gene": "ADCK1", "PubChem SID": "SID364001683", "BNIP3L mRNA, set 1": 0.0818}
{"Target gene": "PITRM1", "PubChem SID": "SID363999175", "BNIP3L mRNA, set 1": 0.16}
{"Target gene": "ZNF24", "PubChem SID": "SID363997710", "BNIP3L mRNA, set 1": 0.102}
